{"source": "paper PMC7823661", "about": "(Viruses, 2020)", "origin": "cited, not measured here", "test_system": "P. falciparum W2-chloroquine-resistant clone", "details": "in vitro, read-out: IC50 antiplasmodial; cited from earlier work", "data": [{"smiles": "CCN(CC)CCCC(C)Nc1ccnc2cc(Cl)ccc12", "note": "(stereo not shown) [chloroquine]", "values": [{"measurement": "IC50", "result": 460, "unit": "nM"}]}]}
